According to US12558337B2, “Formulations comprising melflufen” (ON[…], priority 2019, dated 2026):
Counter-ions that a name gives are not always drawn. Some entries share one result that the patent states for a list of compounds.

Experiment: Stability of liquid formulations containing a melflufen salt and propylene glycol at room temperature (HPLC-MS)
Type: physicochemical
Details: in propylene glycol
Experimental: The solubility and stability of ethanesulfonic acid, p-toluenesulfonic acid and hydrochloric acid salts of melflufen in propylene glycol were investigated. 10 mg of each melflufen salt was transferred to transparent 4 mL vials and propylene glycol (Merck Lot # K51750378936, 1.07478.2500) was added to a concentration of 20 mg/mL. The vials were shaken for a short time and stored at room temperature (RT, 20-25° C.).
The stability of the melflufen salt solutions were analysed at weekly time points by Analytical HPLC-MS using an Agilent 1100 series Liquid Chromatograph/Mass Selective Detector (MSD) (Single Quadrupole) equipped with an electrospray interface and a UV diode array detector. Analysis was performed by using an ACE 3 C8 (3.0×50 mm) column with a gradient of 10-97% acetonitrile in 0.1% aqueous TFA over 3 min and a flow of 1 mL/min. UV was monitored at 305 nm. At each time point (0, 1, 2, 3, 4, 5, 6 and 7 weeks) 10 μL of the melflufen solution was diluted with 490 μL of acetonitrile before HPLC-MS analysis.

[1] = room temperature (20-25° C.), 4 weeks (28 days)
[2] = room temperature, 7 weeks (49 days)

Row | Structure (SMILES) | melflufen purity retained (relative to the melflufen purity before storage of the formulation) [1] | melflufen purity retained (relative to the melflufen purity before storage of the formulation) [2]
1 | CCOC(=O)[C@H](Cc1ccc(F)cc1)NC(=O)[C@@H](N)Cc1ccc(N(CCCl)CCCl)cc1.CCS(=O)(=O)O [melflufen ethanesulfonic acid salt, ethanesulfonic acid;ethyl (2S)-2-[[(2S)-2-amino-3-[4-[bis(2-chloroethyl)amino]phenyl]propanoyl]amino]-3-(4-fluorophenyl)propanoate] | greater than 90% | greater than 85%
2 | CCOC(=O)[C@H](Cc1ccc(F)cc1)NC(=O)[C@@H](N)Cc1ccc(N(CCCl)CCCl)cc1 [melflufen hydrochloric acid salt, L-Melphalanyl-4-fluoro-L-phenylalanine ethyl ester, reference compound] | greater than 90% | greater than 85%
3 | CCOC(=O)[C@H](Cc1ccc(F)cc1)NC(=O)[C@@H](N)Cc1ccc(N(CCCl)CCCl)cc1.Cc1ccc(S(=O)(=O)O)cc1 [melflufen p-toluenesulfonic acid salt, Ethyl (2S)-2-[[(2S)-2-amino-3-[4-[bis(2-chloroethyl)amino]phenyl]propanoyl]amino]-3-(4-fluorophenyl)propanoate;4-methylbenzenesulfonic acid] | greater than 90% | greater than 85%
